From patent US20120237503A1, “Screening Method and Therapy with Agonists of DDAH I” (UCL BUSINESS PLC, priority 2009, published 2012)
“Also recorded” adds a separate entry of the source. For at least one compound, name, drawing or mass did not settle the structure.

Tests used:
Assay type in all cases: in vivo, rat
[1] = system: eNOS; assay: Hepatic eNOS activity (conversion of labelled arginine to 14C-citrulline) in BDL rats; settings: INT-747 5 mg/kg gavage for 5 days, p<0.05
Experimental: FIG. 1 reports on the 14C-citrulline counts per minute per milligram of protein. This is a measure of eNOS activity. Experiments were carried out in bile-duct ligated (BDL) or sham treated rats. The bile duct ligated rats were treated with either infliximab (BDL+infliximab) or a vehicle (BDL).
(§1) These experiments utilised an established animal model of cirrhosis, the bile duct ligated (BDL) rat. BDL rats may be generated by methods known in the art. For example, male Sprague-Dawley rats (200-250 g) may be used for this procedure. Following anaesthetisation, a mid-line laparotamy may be performed, the bile duct exposed, triply ligated with 4.0 silk suture, and severed between the second and third ligature. The wound is then closed in layers with absorbable suture, and the animal allowed to recover in a quiet room before being returned to the animal storage facility.
(§2) After 5 days of treatment rats underwent direct portal pressure assessment and were then sacrificed, and plasma and liver tissue collected for analysis. eNOS activity was determined radiometrically by the conversion of labelled radioactive arginine to citrulline. Protein expression for eNOS, iNOS, DDAH-1, and DDAH-2 were measured by standard Western Blotting techniques. Liver biopsies were evaluated for histopathology with H+E, Van Giesen and reticulin stains.

[2] = system: DDAH-I; assay: Hepatic DDAH-I protein expression in BDL rats; settings: INT-747 5 mg/kg gavage for 5 days, vs BDL alone, p<0.01
Text: as §1
Extracts containing equal amounts of protein were denatured and separated on 4-12% NuPAGE Bis-Tris Gels and blotted on to PVDF membranes (Invitrogen, UK). […] The bands were visualized using an enhanced ECL detection kit and quantified by densitometry. Loading accuracy was evaluated via membrane rehybridization with antibodies against mouse and rabbit anti-α tubulin (1:1000; upstate and Cell Signaling Technology, respectively).
as §2, with “Liver biopsies were evaluated for histopathology with H+E, Van Giesen and reticulin stains.” left out

[3] = system: eNOS; assay: Hepatic eNOS protein expression by Western blot in BDL rats; settings: INT-747 5 mg/kg gavage for 5 days, p<0.05
[4] = system: ADMA; assay: Hepatic ADMA expression by Western blot in BDL rats; settings: INT-747 5 mg/kg gavage for 5 days, vs BDL alone, p<0.05
[5] = system: BDL rats; assay: Liver histopathology (fibrosis, inflammation) in BDL rats; settings: INT-747 5 mg/kg gavage for 5 days

CC[C@H]1[C@@H](O)[C@@H]2[C@H](CC[C@]3(C)[C@@H]([C@H](C)CCC(=O)O)CC[C@@H]23)[C@@]2(C)CC[C@@H](O)C[C@@H]12 [INT-747, 6-ethyl chenodeoxycholic acid]
hepatic eNOS activity [1]: reverted to sham levels
hepatic DDAH-I protein expression [2]: significant increase; also recorded: increased significantly
hepatic eNOS protein expression [3]: normalisation
hepatic ADMA protein expression [4]: significant reduction
change in histological fibrosis or inflammation [5]: absence of any significant change
